Data on 110 sequences can be found in the supplement of paper PMC3334620.

Whole data set: some 33,000 sequences, median “E-score (-0.5 to 0.5)” near -8e-05, cut for the highest 2% near 0.23. Some of the results follow.

In this test the target is T1, Nrg2 (UniProt P38082).
T1 sequence: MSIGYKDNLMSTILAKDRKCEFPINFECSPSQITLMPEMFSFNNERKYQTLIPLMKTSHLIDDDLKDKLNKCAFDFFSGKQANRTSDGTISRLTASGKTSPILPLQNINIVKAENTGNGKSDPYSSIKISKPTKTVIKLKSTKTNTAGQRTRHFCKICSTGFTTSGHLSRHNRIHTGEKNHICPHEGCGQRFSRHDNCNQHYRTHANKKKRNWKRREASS
The experiment in a line: PBM E-score (8-mer binding enrichment) (E-score (-0.5 to 0.5)); higher = stronger / more preferred TF binding. To be noted: protein concentration: 100 nM; construct: GST-full length. The method, boiled down:
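Full-length yeast transcription factors or their DNA-binding domains, GST-tagged and expressed with PURExpress, were applied at about 100-200 nM to universal all-10-mer Agilent arrays. These arrays had been made double-stranded by primer extension on fresh or once-stripped slides. Detection used fluorescent anti-GST, normalisation used masliner, and E-scores for ungapped eight-base words pooled with reverse complements came from the Universal PBM Analysis Suite.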
On to AGGCGTTC, for which the “PBM E-score” value was -0.0836.

As for GGATTGAA, the “PBM E-score” value was 0.0664.

Take GGGGGTAA: the “PBM E-score” value is -0.374. Regarding GGGGGGGA, the “PBM E-score” value is -0.446. For AAGTAACG the value was 0.0587; for ACAGGGTA, 0.349; for AAGTTAGT, 0.021. Turning to AACTACTG, the “PBM E-score” value amounted to 0.0512. CACGAGTA: the “PBM E-score” value came out at 0.121.

As for GGGGACAA, the “PBM E-score” value stood at 0.0829. The same measure for TCACATGA: -0.129. The same measure for GAATACGA: 0.0569; for AGTTGCGC: 0.0828; for ATAGACAA: 0.17. ATGGATAG: the “PBM E-score” value was -0.0889.

Turning to AACAGGGT, the “PBM E-score” value turned out to be 0.211.

Take CCCCTGCC: the “PBM E-score” value was found to be 0.0503. With ACATGGCT, the “PBM E-score” value was -0.0984.

With ATGGATTA, the “PBM E-score” value is -0.14. Take AGTTGGTG: the “PBM E-score” value was found to be 0.0201. The same measure for CCTCATAA: -0.131. For ACAACCAC the value was -0.0501. Turning to CCACCGGA, the “PBM E-score” value was -0.0356. Consider GCGGCGAC, for which the “PBM E-score” value worked out at 0.0679. The same measure for ATCATTGC: -0.0784; for TGATACCA: 0.0617; for AGACAAGC: 0.0792. Turning to CTTCGGAC, the “PBM E-score” value came out at 0.0444. The same measure for CGTAGCAC: 0.0106; for AAACGCTC: -0.257; for AAATCGAC: 0.237. Regarding TCGATGCA, the “PBM E-score” value was determined as 0.0441. GAGAGATC: the “PBM E-score” value was found to be 0.0983. For AATTGGGT the value was 0.26. Turning to CTGACGTC, the “PBM E-score” value was 0.0649. The same measure for ATCGCCCA: -0.111; for AGCCGGCG: -0.0749. For GTAGAGCA the value was -0.216; for TCCGTAAA, -0.0349.

With ACACGACA, the “PBM E-score” value was found to be 0.127. As to ACAACGAT, the “PBM E-score” value was -0.0519. For CCCTCGGA the value was 0.0471. The same measure for CAGGCCGA: 0.0757.

As for CGACCCAG, the “PBM E-score” value came out at 0.0561. The same measure for CTTCTCAC: 0.0533. The same measure for CCTCGCAC: 0.0531. For the sequence TCTGACCA, the “PBM E-score” value was 0.216.

As to AGCGCTCG, the “PBM E-score” value is -0.0806. For ACTCTGGG, the “PBM E-score” value stood at 0.0604. The same measure for CAAGCTGA: 0.144; for GATGTTGA: -0.016. For the sequence CCCTGTGC, the “PBM E-score” value stood at 0.263. For CTTCCTTA the value was -0.129. For AAGGGGCA the value was 0.0413; for ACCCTACT, 0.0864. For the sequence GGGGTTTA, the “PBM E-score” value was -0.0777. For CAGTTGCC the value was -0.092. The same measure for GCACAACC: -0.0363; for CTGATCTC: -0.0447; for CAAATCTC: 0.0453.

Turning to AAATGGGT, the “PBM E-score” value is 0.125. The same measure for ATTATGGA: -0.00592; for AGTTTCGG: 0.2. The same measure for GAAACGCC: -0.0514. The same measure for TGCAGCAA: 0.201. Take GAGGCATC: the “PBM E-score” value was -0.234.

As for CCGGGGGA, the “PBM E-score” value was -0.316. The same measure for AGACAGGA: 0.118. For ATGCAATG the value was -0.0204; for ATCGCTGC, 0.0561; for GAGCCTGC, -0.0298.

For the sequence AAACGGAC, the “PBM E-score” value is -0.205. For CTTAAGAA the value was 0.0514; for CCAGCCTC, -0.23. For ATGAGCCC the value was -0.0471; for GCGTTGGA, -0.12. The same measure for CTCATTCA: 0.161. Consider CATTATAC, for which the “PBM E-score” value came to 0.204. For AAGGCGCC the value was 0.1. The same measure for TCATGTCA: 0.0401; for CCAAGTCC: -0.056.

Take TAAAGCCA: the “PBM E-score” value worked out at 0.0522. On to CTGGGATC, for which the “PBM E-score” value was -0.171. Regarding GCCCGGAA, the “PBM E-score” value stood at 0.041. The same measure for ACGTCCTG: -0.264; for CAGAATAG: 0.0458. The same measure for ACAAGGCT: -0.256; for CTAACATC: -0.0367.

Regarding TACTCCGA, the “PBM E-score” value was -0.0135.

TACGTCGA: the “PBM E-score” value is -0.00706. CCACCGCG: the “PBM E-score” value came to 0.0694.

In the case of AATCGTCC, the “PBM E-score” value amounted to 0.0101. The same measure for CCTGTCCA: -0.123; for CCAGTGAG: -0.206; for TAATCGTA: -0.0259. Take CCCAAAAA: the “PBM E-score” value is -0.0156. Consider AGAGGATC, for which the “PBM E-score” value was -0.00322. The same measure for TCCTGAGA: -0.0364; for AAGTAATA: -0.00088.

Consider GTCCACAA, for which the “PBM E-score” value is -0.177. The same measure for GCACACAC: -0.0423; for CCGCCTAC: 0.0611. The same measure for ACCTAATG: -0.262; for AGTTCAAT: -0.0578; for CCAAGAAC: 0.0699.

With ACTACAAA, the “PBM E-score” value was determined as 0.141.

Consider TTAGCTAA, for which the “PBM E-score” value was -0.0113. ACCACAAG: the “PBM E-score” value is -0.0833.

As to CGGTCCGC, the “PBM E-score” value is -0.0774.

Turning to ACGATCCG, the “PBM E-score” value turned out to be 0.0452.
